Measured values taken from US20120121706A1 (TUFTS MEDICAL CENTER, published 2012).
Results are given in words; binding and its absence hold for the method and conditions named. Binding seen in cells or lysates may run through a third protein. Some results given as binding are weak or reduced against the parent protein; the word gives no strength.

Protein sequences, listed by entry. Tags and fused reporters are not part of them. Lines headed by an entry give the natural chain unless they say otherwise; changes in a name come on top.
UniProt P17301: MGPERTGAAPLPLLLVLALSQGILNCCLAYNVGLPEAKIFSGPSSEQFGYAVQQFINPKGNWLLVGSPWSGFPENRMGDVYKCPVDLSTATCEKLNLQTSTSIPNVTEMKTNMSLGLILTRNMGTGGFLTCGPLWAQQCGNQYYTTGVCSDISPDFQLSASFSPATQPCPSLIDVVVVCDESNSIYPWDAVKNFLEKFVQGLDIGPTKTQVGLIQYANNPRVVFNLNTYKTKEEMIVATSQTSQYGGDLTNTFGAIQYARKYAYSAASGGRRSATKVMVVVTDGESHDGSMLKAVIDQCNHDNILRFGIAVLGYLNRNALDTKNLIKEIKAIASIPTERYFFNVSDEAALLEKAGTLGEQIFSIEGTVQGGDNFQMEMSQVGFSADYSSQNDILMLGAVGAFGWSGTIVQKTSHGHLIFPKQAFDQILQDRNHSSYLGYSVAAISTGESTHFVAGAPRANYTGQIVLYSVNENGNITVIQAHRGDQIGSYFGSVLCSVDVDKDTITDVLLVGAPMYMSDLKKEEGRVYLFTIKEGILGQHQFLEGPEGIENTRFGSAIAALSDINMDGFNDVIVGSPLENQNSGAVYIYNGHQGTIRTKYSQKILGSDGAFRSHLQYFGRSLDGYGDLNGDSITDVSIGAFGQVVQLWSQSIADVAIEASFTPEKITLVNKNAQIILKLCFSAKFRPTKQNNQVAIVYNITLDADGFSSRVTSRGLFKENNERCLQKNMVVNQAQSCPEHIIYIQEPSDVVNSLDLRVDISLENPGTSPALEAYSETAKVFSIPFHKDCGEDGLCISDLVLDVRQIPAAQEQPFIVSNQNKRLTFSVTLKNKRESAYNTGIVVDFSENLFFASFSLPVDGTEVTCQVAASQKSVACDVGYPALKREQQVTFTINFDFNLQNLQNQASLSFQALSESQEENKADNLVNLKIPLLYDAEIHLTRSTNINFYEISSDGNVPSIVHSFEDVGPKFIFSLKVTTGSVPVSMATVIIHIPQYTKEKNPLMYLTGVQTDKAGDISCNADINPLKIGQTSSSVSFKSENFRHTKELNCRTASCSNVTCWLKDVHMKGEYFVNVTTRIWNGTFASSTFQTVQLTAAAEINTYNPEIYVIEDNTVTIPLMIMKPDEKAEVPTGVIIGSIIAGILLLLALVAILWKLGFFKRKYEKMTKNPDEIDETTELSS
UniProt P05556: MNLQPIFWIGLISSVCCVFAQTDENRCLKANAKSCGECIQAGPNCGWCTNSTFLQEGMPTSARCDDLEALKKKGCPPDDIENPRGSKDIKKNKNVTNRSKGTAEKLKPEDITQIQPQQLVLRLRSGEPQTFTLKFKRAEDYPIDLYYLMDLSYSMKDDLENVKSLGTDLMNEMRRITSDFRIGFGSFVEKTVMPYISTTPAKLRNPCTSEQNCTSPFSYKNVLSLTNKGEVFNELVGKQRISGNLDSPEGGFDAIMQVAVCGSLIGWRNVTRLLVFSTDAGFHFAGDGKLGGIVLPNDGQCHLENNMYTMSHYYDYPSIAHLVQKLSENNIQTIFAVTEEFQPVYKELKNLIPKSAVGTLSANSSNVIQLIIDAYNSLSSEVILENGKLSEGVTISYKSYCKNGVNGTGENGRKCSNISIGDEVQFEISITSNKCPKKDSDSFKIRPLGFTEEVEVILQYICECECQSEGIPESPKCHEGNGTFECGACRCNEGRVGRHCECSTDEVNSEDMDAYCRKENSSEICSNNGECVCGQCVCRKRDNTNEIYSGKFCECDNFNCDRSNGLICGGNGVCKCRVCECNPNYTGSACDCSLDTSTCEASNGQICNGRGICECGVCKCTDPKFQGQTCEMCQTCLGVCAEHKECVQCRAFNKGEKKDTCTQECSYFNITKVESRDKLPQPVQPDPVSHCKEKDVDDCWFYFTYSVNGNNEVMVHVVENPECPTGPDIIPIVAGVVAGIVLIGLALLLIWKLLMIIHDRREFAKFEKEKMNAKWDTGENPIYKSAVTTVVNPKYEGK

Columns and labels:
[1] = target: T1, α2β1 integrin (collagen receptor) of human platelets (human) (UniProt P17301+P05556); experiment: co-immunoprecipitation from resting human platelet lysates (anti-α2, anti-β1), Western for MMP-1
[2] = target: T1, α2β1 integrin (collagen receptor) of human platelets (human); experiment: co-immunoprecipitation, FIG. 1D legend

B1: proMMP-1 (platelet-associated zymogen of MMP-1) (enzyme, human, UniProt P03956 20-469, looked up)
chain: FPATLETQEQDVDLVQKYLEKYYNLKNDGRQVEKRRNSGPVVEKLKQMQEFFGLKVTGKPDAETLKVMKQPRCGVPDVAQFVLTEGNPRWEQTHLTYRIENYTPDLPRADVDHAIEKAFQLWSNVTPLTFTKVSEGQADIMISFVRGDHRDNSPFDGPGGNLAHAFQPGPGIGGDAHFDEDERWTNNFREYNLHRVAAHELGHSLGLSHSTDIGALMYPSYTFSGDVQLAQDDIDGIQAIYGRSQNPVQPIGPQTPKACDSKLTFDAITTIRGEVMFFKDRFYMRTNPFYPEVELNFISVFWPQLPNGLEAAYEFADRDEVRFFKGNKYWAVQGQNVLHGYPKDIYSSFGFPRTVKHIDAALSEENTGKTYFFVANKYWRYDEYKRSMDPGYPKMIAHDFPGIGHKVDAVFMKDGFFYFFHGTRQYKFDPKTKRILTLQKANSWFNCRKN
notes: Endogenous protein co-immunoprecipitated from platelet lysates; detected by Western with AB8105 or AB806; also called MMP-1 (predominantly in the pro form)
With B1 the binding [1] was “binds” and the binding [2] was “binds”.
